In publication PMC6305486:
These are yes or no findings as the source states them, for the method shown.

By UniProt entry, the sequences of proteins in these tests, tags left out. Residues count along the entry.
UniProt P06136, residues 50-276: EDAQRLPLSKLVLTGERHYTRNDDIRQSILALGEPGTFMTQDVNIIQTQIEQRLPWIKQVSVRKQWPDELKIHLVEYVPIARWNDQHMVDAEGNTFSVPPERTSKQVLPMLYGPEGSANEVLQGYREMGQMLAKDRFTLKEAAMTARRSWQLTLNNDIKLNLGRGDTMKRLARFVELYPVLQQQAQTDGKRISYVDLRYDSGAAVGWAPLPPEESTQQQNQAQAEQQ

Assays:
[1] = target: FtsQ_(50–276) (E. coli) (UniProt P06136); assay: SEC; analytical gel filtration, Superdex 200 10/300 GL, buffer B (20 mM Tris-HCl pH 8.0, 200 mM NaCl), 0.5 mL/min; high concentrations (101–370 μM); apparent Stokes radius compared with radii calculated from models; both purified
[2] = target: FtsQ_(50–276) (E. coli) (UniProt P06136); assay: SEC; analytical gel filtration, Superdex 200 10/300 GL, buffer B (20 mM Tris-HCl pH 8.0, 200 mM NaCl), 0.5 mL/min; low concentrations (6.8–22.2 μM); apparent Stokes radius compared with radii calculated from models; both purified

In the case of “FtsQ_(50–276) (from UniProt P06136 50-276) (domain or fragment)”, the binding [1] is reported as “no binding (tested: 370 μM)” and the binding [2] is reported as “no binding (tested: 18.5 μM)”.
